Test results: patent CN115368461A
No constants are given. Whether binding was seen depends on the method and setting. Some entries that bind do so weakly or less than the wild type.

Target: 猴TROP2-his (CynoTROP2-His), ACRO TR2-R52H3 (cynomolgus monkey (食蟹猴))
Test: ForteBio Octet BLI; antibody on Protein A sensor, 100nM antigen

B1: mAb29 (antibody, V domains shown)
VH: EVKLVESGGDLVQPGGSLKLSCAASGFSFSDYYMYWVRQTPEKRLEWVANIDNGGDTTYYPDTVKGRFTISRDNAKNTLYLQMSRLKSEDTAMYYCARHDPLTGPPFFAMDYWGQGTSVTVSS
VL: DIQMTQSPSSLSASLGGKVTISCKASQGINQYIAWYQLKPGKGPRLLIHYTSTLQPGVPSRFSGSGSGRDYSFSISNLEPEDIASYYCLQYDNLWTFGGGTKLEIK
In the case of B1, the binding is reported as “binds”.

B2: mAb53 (antibody, V domains shown)
VH: QVQLQQPGAELVKPGASVKMSCKASGYTFTSYWITWVKQRPGQGLEWIGNIHPGSSTTNYNEKFKSKATLTVHTSSSTVYMQLTSLTSEDSAVYYCAREVGDYWGQGTSVTVSS
VL: DILLTQSPAILSVSPGERASFSCRASQIIGTSIHWYQQRTNGSPRLLIKYVSESISGIPSRFSGSGSGTDFTLSINSVESEDIADYYCQQSHSWPFTFGGGTKL
For B2, the binding was “binds”.
